In paper PMC8621075:

Molecular target: YgfX (S. oneidensis MR-1)
Test: two-hybrid; bacterial two-hybrid by adenylate cyclase reconstitution (T25 and T18 fusions, Euromedex) in E. coli BTH101; β-galactosidase activity of overnight cultures, compared to negative and positive controls

B1: YgfY (protein, UniProt Q8EH90 1-82)
chain: MELMNIARVRWACRRGMLELDVLFQPFVDNVYQDLSDEDKVLFIRLLECEDPELFAWFMGHEVCPDPELARMVVQVRGRAAP
Q: With B1 as the binder, how does the binding read?
A: no binding

No constants are given. Whether binding was seen depends on the method and setting.
